# Results reported in US11717508B2, “Compounds, compositions, and methods for inhibiting bacterial growth” (priority 2016, dated 2023).
# Values joined by “and” are separate entries in the source; they are usually repeats but may differ in a detail not shown here. Identical values can stand only once. Like-named read-outs stand apart in the source and are kept apart here. The source gives many values for each of these; only a part stands here.
# System: DosRST regulon
# Format: cell-based
# Details: for Counts per million (CPM) WT_HC103A: replicates 1, 2
compound,measurement,setting,value
"O=C(Nc1cccc(O)c1)c1cccc(NC(=O)c2cccs2)c1 [HC103A, N-[3-[(3 hydroxyphenyl)carbamoyl]phenyl]thiophene-2-carboxamide]",Counts per million (CPM) WT_HC103A,gene MT36S5 Rv3551,77.96 CPM and 70.72 CPM
same,Counts per million (CPM) WT_HC103A,gene MT0086 Rv0079,612.5 CPM and 321 CPM
same,Counts per million (CPM) WT_HC103A,gene MT0087 Rv0080,224.7 CPM and 124.7 CPM
same,WT DMSO/WT HC103A Fold change,gene MT0169 Rv0160c PE,2.654
same,log2 Fold change,gene MT0169 Rv0160c PE,1.408
same,Counts per million (CPM) WT_HC103A,gene MT0169 Rv0160c PE,19.65 CPM and 19.55 CPM
same,WT DMSO/WT HC103A Fold change,gene MT0206 Rv0196,4.813
same,log2 Fold change,gene MT0206 Rv0196,2.267
same,Counts per million (CPM) WT_HC103A,gene MT0206 Rv0196,145.2 CPM and 138.3 CPM
same,Counts per million (CPM) WT_HC103A,gene MT0207 Rv0197,324.2 CPM and 345.5 CPM
same,Counts per million (CPM) WT_HC103A,gene MT0337 Rv0322 udgA,71.01 CPM and 46.23 CPM
same,Counts per million (CPM) WT_HC103A,gene MT0468 Rv0452,128.9 CPM and 95.91 CPM
same,Counts per million (CPM) WT_HC103A,gene MT0491 Rv0474,167.6 CPM and 130.6 CPM
same,Counts per million (CPM) WT_HC103A,gene MT0585 Rv0559c,"2,729.98 CPM and 4,689.54 CPM"
same,Counts per million (CPM) WT_HC103A,gene MT0586 Rv0560c,"6,038.01 CPM and 10,500.79 CPM"
same,Counts per million (CPM) WT_HC103A,gene MT0595 Rv0569,28.43 CPM and 30.13 CPM
same,Counts per million (CPM) WT_HC103A,gene MT0808 Rv0784,168.9 CPM and 139.9 CPM
same,Counts per million (CPM) WT_HC103A,gene MT0910 Rv0887c,40.68 CPM and 23.64 CPM
same,Counts per million (CPM) WT_HC103A,gene MT1294 Rv1255c,27.37 CPM and 11.95 CPM
same,Counts per million (CPM) WT_HC103A,gene MT1608 Rv1557 mmpL6,306.8 CPM and 411.4 CPM
same,WT DMSO/WT HC103A Fold change,gene MT1924 Rv1875,2.702
same,log2 Fold change,gene MT1924 Rv1875,1.434
same,Counts per million (CPM) WT_HC103A,gene MT1924 Rv1875,140 CPM and 72.47 CPM
same,Counts per million (CPM) WT_HC103A,gene MT2090,"1,309.90 CPM and 213.7 CPM"
same,Counts per million (CPM) WT_HC103A,gene MT2091 Rv2032,93.24 CPM and 24.61 CPM
same,Counts per million (CPM) WT_HC103A,gene MT2445.1,33.55 CPM and 43.9 CPM
same,WT DMSO/WT HC103A Fold change,gene MT2526 Rv2450c,2.86
same,log2 Fold change,gene MT2526 Rv2450c,1.516
same,Counts per million (CPM) WT_HC103A,gene MT2526 Rv2450c,565.3 CPM and 307.7 CPM
same,Counts per million (CPM) WT_HC103A,gene MT2556 Rv2483c,246.1 CPM and 208 CPM
same,Counts per million (CPM) WT_HC103A,gene MT2557 Rv2484c,325.2 CPM and 280.1 CPM
same,Counts per million (CPM) WT_HC103A,gene MT2574 Rv2499c,131.7 CPM and 99.22 CPM
same,Counts per million (CPM) WT_HC103A,gene MT2576,381.7 CPM and 270.3 CPM
same,Counts per million (CPM) WT_HC103A,gene MT2577 Rv2502c accD1,138.3 CPM and 104.8 CPM
same,Counts per million (CPM) WT_HC103A,gene MT2578 Rv2503c scoB,136.9 CPM and 114.2 CPM
same,Counts per million (CPM) WT_HC103A,gene MT2579 Rv2504c scoA,149.7 CPM and 111 CPM
same,Counts per million (CPM) WT_HC103A,gene MT2698 Rv2623,323.6 CPM and 153.3 CPM
same,Counts per million (CPM) WT_HC103A,gene MT2699 Rv2624c,46.28 CPM and 12.99 CPM
same,Counts per million (CPM) WT_HC103A,gene MT2700 Rv2625c,65.11 CPM and 13.96 CPM
same,Counts per million (CPM) WT_HC103A,gene MT2701 Rv2626c,174.8 CPM and 34.87 CPM
same,Counts per million (CPM) WT_HC103A,gene MT2702 Rv2627c,50.97 CPM and 24.87 CPM
same,Counts per million (CPM) WT_HC103A,gene MT2703 Rv2678,26.47 CPM and 22.34 CPM
same,Counts per million (CPM) WT_HC103A,gene MT2704 Rv2629,413.2 CPM and 339.4 CPM
same,Counts per million (CPM) WT_HC103A,gene MT2705 Rv2630,59.82 CPM and 43.05 CPM
same,Counts per million (CPM) WT_HC103A,gene MT2707 Rv2631,74.71 CPM and 51.82 CPM
same,WT DMSO/WT HC103A Fold change,gene MT2792 Rv2719c,2.674
same,log2 Fold change,gene MT2792 Rv2719c,1.419
same,Counts per million (CPM) WT_HC103A,gene MT2792 Rv2719c,54.37 CPM and 41.56 CPM
same,WT DMSO/WT HC103A Fold change,gene MT2805 Rv2736c recX,2.589
same,log2 Fold change,gene MT2805 Rv2736c recX,1.372
same,Counts per million (CPM) WT_HC103A,gene MT2805 Rv2736c recX,90.29 CPM and 59.16 CPM
same,WT DMSO/WT HC103A Fold change,gene MT3110 Rv3026c,3.906
same,log2 Fold change,gene MT3110 Rv3026c,1.966
same,Counts per million (CPM) WT_HC103A,gene MT3110 Rv3026c,19.13 CPM and 14.81 CPM
same,WT DMSO/WT HC103A Fold change,gene MT3140 Rv3054c,11.16
same,log2 Fold change,gene MT3140 Rv3054c,3.481
same,Counts per million (CPM) WT_HC103A,gene MT3140 Rv3054c,40.68 CPM and 10.91 CPM
same,Counts per million (CPM) WT_HC103A,gene MT3171 Rv3086 adhD,246.8 CPM and 214.6 CPM
same,Counts per million (CPM) WT_HC103A,gene MT3210,0.2269 CPM and 0 CPM
same,Counts per million (CPM) WT_HC103A,gene MT3212 Rv3127,251.3 CPM and 90.33 CPM
same,Counts per million (CPM) WT_HC103A,gene MT3216 Rv3130c,290.8 CPM and 74.09 CPM
same,Counts per million (CPM) WT_HC103A,gene MT3217 Rv3131,118.8 CPM and 25.13 CPM
same,Counts per million (CPM) WT_HC103A,gene MT3218 Rv3132c,237.9 CPM and 168.7 CPM
same,Counts per million (CPM) WT_HC103A,gene MT3219 Rv3133c,112.5 CPM and 67.01 CPM
same,Counts per million (CPM) WT_HC103A,gene MT3220 Rv3134c,155.2 CPM and 61.75 CPM
same,WT DMSO/WT HC103A Fold change,gene MT3345 Rv3247c tmk,2.667
same,log2 Fold change,gene MT3345 Rv3247c tmk,1.415
same,Counts per million (CPM) WT_HC103A,gene MT3345 Rv3247c tmk,32.74 CPM and 20.58 CPM
same,Counts per million (CPM) WT_HC103A,gene MT3427,112.4 CPM and 107.5 CPM
same,Counts per million (CPM) WT_HC103A,gene MT3443 Rv3340 metC,593.2 CPM and 359.1 CPM
same,Counts per million (CPM) WT_HC103A,gene MT3444 Rv3341 metA,307.4 CPM and 175.5 CPM
same,WT DMSO/WT HC103A Fold change,gene MT3513,2.672
same,log2 Fold change,gene MT3513,1.418
same,Counts per million (CPM) WT_HC103A,gene MT3513,104.9 CPM and 49.09 CPM
same,WT DMSO/WT HC103A Fold change,gene MT3514 Rv3406,8.433
same,log2 Fold change,gene MT3514 Rv3406,3.076
same,Counts per million (CPM) WT_HC103A,gene MT3514 Rv3406,685 CPM and 289.7 CPM
same,WT DMSO/WT HC103A Fold change,gene MT3515 Rv3407,3.439
same,log2 Fold change,gene MT3515 Rv3407,1.782
same,Counts per million (CPM) WT_HC103A,gene MT3515 Rv3407,276.8 CPM and 112.9 CPM
same,Counts per million (CPM) WT_HC103A,gene MT3608 Rv3504 fadE26,48.09 CPM and 42.08 CPM
same,Counts per million (CPM) WT_HC103A,gene MT3634 Rv3531c,55.28 CPM and 43.57 CPM
same,Counts per million (CPM) WT_HC103A,gene MT3656 Rv3552,108.5 CPM and 106.4 CPM
same,Counts per million (CPM) WT_HC103A,gene MT3716 Rv3614c,"1,189.74 CPM and 540 CPM"
same,Counts per million (CPM) WT_HC103A,gene MT3717 Rv3615c,538.7 CPM and 261 CPM
same,Counts per million (CPM) WT_HC103A,gene MT3718 Rv3616c,"1,818.45 CPM and 821.5 CPM"
same,WT DMSO/WT HC103A Fold change,gene MT3723 Rv3621c PPE,3.542
same,log2 Fold change,gene MT3723 Rv3621c PPE,1.824
same,Counts per million (CPM) WT_HC103A,gene MT3723 Rv3621c PPE,40.46 CPM and 11.43 CPM
same,WT DMSO/WT HC103A Fold change,gene MT3724 Rv3622c PE,4.154
same,log2 Fold change,gene MT3724 Rv3622c PE,2.054
same,Counts per million (CPM) WT_HC103A,gene MT3724 Rv3622c PE,20.27 CPM and 6.364 CPM
same,WT DMSO/WT HC103A Fold change,gene MT3846,2.912
same,log2 Fold change,gene MT3846,1.542
same,Counts per million (CPM) WT_HC103A,gene MT3846,53.39 CPM and 59.48 CPM
